Reference: patent US6835819B2, “Sequences and their use” (Metcon Medicin AB, priority 2000, dated 2004)
At least one compound was matched to its structure with a doubt left.

Key:
IRS-2 gene expression = assay: IRS-2 expression in human adipocytes; assay type: cell-based; conditions: human fat cells from type 2 diabetic individuals, preliminary studies
IRS-2 mRNA = IRS-2 mRNA expression (Northern blots) in differentiated 3T3-L1 adipocytes; assay type: cell-based, mouse
Method: (§1) 3T3-L1 fibroblasts were grown and differentiated into adipocytes according to Rubin et al., 1977). At least 90% of the cells had acquired the adipocyte phenotype 6 days after initiating differentiation. Eight days after differentiation, the medium was changed and the various agents added for the times indicated in the Results.
(§2) Total cellular RNA was isolated from cells with guanidinium thiocyanate, as described (Chirgwin et al. 1979). Northern blot analyses were performed on total cellular RNA (30 μg) with labeled cDNA probes made against β-actin as housekeeping gene, mouse IRS-1 (bp 1333-2335) and mouse IRS-2 (bp 2987-3325) (kindly provided by Drs. J. Pierce and L-M Wang, NCI, NIH), rodent GLUT4 (bp 121-2128, Accession Nr NM 001042, kindly provided by Dr. Sam W. Cushman, NIDDK, NIH) and PKB/Akt using a PCR fragment against PKBβ (bp 282-1130, Accession Nr M95936) in a common sequence for PKBα, PKBβ and PKBγ. 5′ sequence […] and 3′ sequence […] were used as PCR primers (SEQ. ID. NO. 13 and 14, respectively).

PKB/Akt protein = PKB/Akt protein expression in differentiated 3T3-L1 cells; assay type: cell-based, mouse; conditions: pioglitazone and/or insulin for 48 hrs
Method: (§3) 3T3-L1 fibroblasts were grown and differentiated into adipocytes according to Rubin et al., 1977). At least 90% of the cells had acquired the adipocyte phenotype 6 days after initiating differentiation. Eight days after differentiation, the medium was changed and the various agents added for the times indicated in the Results. Cell lysates were prepared as described by Rondinone et al. 1997. Equal amounts of protein were separated by SDS/PAGE, transferred and immunoblotted with appropriate antibodies against the specific proteins. Phosphotyrosines were immunoblotted with antibody PY99 (Transduction Laboratories, Lexington, N.Y.), GLUT4 with an antibody kindly provided by Dr. Sam W. Cushman (NIDDK, NIH), IRS-1 and IRS-2 with antibodies from Upstate Biotechnology, Inc. (Lake Placid, N.Y.) and PKB/Akt with antibodies from Biolab (Boston, Mass.). Immunoprecipitations were performed as described (Rondinone et at., 1997) and individual proteins were detected by blotting with horseradish peroxidase-linked secondary antibodies and using enhanced chemiluminescence (Nycomed Amersham plc., UK).

GLUT4 mRNA = GLUT4 mRNA expression (Northern blots) in differentiated 3T3-L1 adipocytes; assay type: cell-based, mouse; conditions: after 48 hrs incubation
IRS-1 mRNA = IRS-1 mRNA expression (Northern blots) in differentiated 3T3-L1 adipocytes; assay type: cell-based, mouse; conditions: 48 hrs; insulin alone or combined with PPARγ ligand; same experiments as IRS-2
Method: as §1, §2

IRS-1 protein = IRS-1 protein expression (immunoblot) in differentiated 3T3-L1 cells; assay type: cell-based, mouse
Method: as §3

PKB/Akt phosphorylation = assay: Acute insulin-stimulated PKB/Akt phosphorylation (immunoblot) in pre-cultured 3T3-L1 adipocytes; assay type: cell-based, mouse
IRS-2 protein = IRS-2 protein expression (immunoblot) in differentiated 3T3-L1 cells; assay type: cell-based, mouse; conditions: 48 hrs, 10 μM pioglitazone or 100 nM insulin (FIG. 1B bottom)
Method: as §3

PKB/Akt mRNA = PKB/Akt mRNA expression (Northern blots) in differentiated 3T3-L1 adipocytes; assay type: cell-based, mouse; conditions: 48 hrs; insulin alone or combined with PPARγ ligand; same experiments as IRS-2
Method: as §1, §2

[1] = 10 μM pioglitazone, time-course (FIG. 1C)

With `CCc1ccc(CCOc2ccc(CC3SC(=O)NC3=O)cc2)nc1` (centres unmarked) [pioglitazone] the IRS-2 gene expression (IRS-2 gene expression) was “increases”, the “IRS-2 mRNA when pioglitazone combined with progesterone or 8-BrcAMP” value (IRS-2 mRNA; 10 μM pioglitazone with 100 nM progesterone or 200 μM 8-BrcAMP, 48 hrs (FIG. 2 bottom)) was “stimulating effect” and the “IRS-2 gene expression throughout the 48 hrs observation time” value (IRS-2 mRNA; [1]) was “remained elevated”. The “time after which IRS-2 gene expression was already increased” value (IRS-2 mRNA; [1]) was 4 h, the “time of peak IRS-2 gene expression” value (IRS-2 mRNA; [1]) was 24 h and the IRS-2 gene expression (IRS-2 mRNA; 4-48 hrs exposure to different concentrations) was “consistently increased”. The “IRS-2 mRNA expression in the presence of cycloheximide” value (IRS-2 mRNA; cycloheximide 40 μM in incubation medium for 8 and 24 hrs) was “increased”, the PKB/Akt protein expression (PKB/Akt protein) was “not changed” and the “GLUT4 mRNA expression” value (GLUT4 mRNA) was “no consistent increase”. For the same molecule, the “gene expression of IRS-1” value (IRS-1 mRNA) was “Neither insulin alone nor when combined with the PPARγ ligands, pioglitazone or darglitazone (not shown), altered”, the “insulin-induced reduction of IRS-1 protein expression in presence of pioglitazone” value (IRS-1 protein; 100 nM insulin with 10 μM pioglitazone (FIG. 3B bottom)) was “not altered” and the IRS-1 protein expression (IRS-1 protein; pioglitazone alone or insulin alone, chronic (FIG. 3B bottom)) was “did not change”. For the same molecule, the “acute effect of insulin on PKB/Akt phosphorylation” value (PKB/Akt phosphorylation; cells cultured with agent alone for 48 hrs, serum-starved 3 hrs, then 100 nM insulin 10 min) was “tended to be increased”, the “reduced insulin-stimulated phosphorylation of PKB/Akt induced by chronic hyperinsulinemia” value (PKB/Akt phosphorylation; pioglitazone added for 48 hrs with chronic insulin) was “did not improve” and the “reduced insulin-stimulated phosphorylation of PKB/Akt induced by chronic hyperinsulinemia” value (PKB/Akt phosphorylation; pioglitazone with chronic insulin, after 96 hrs) was “an improvement was seen”. For the same molecule, the IRS-2 protein expression (IRS-2 protein) was “increased” and the “gene expression of PKB/Akt” value (PKB/Akt mRNA) was “Neither insulin alone nor when combined with the PPARγ ligands, pioglitazone or darglitazone (not shown), altered”.
